From US10392371B2, “Compounds useful as modulators of TRPM8” (Senomyx, Inc., priority 2015, dated 2019)

Assay: Sensory evaluation by quantitative descriptive evaluation technique (ten trained panelists, 15-point linescale)
Assay type: in vivo, human
Set-up: key: the Duncan's levels are reported as Levels A, B, and C; the Duncan's levels are reported as Levels A, B, and C; the Duncan's levels are reported as Levels A, B, and C
Details: Duncan's multiple comparison level, alpha 5%
Protocol: Compounds 102-105 and Comparative Compound 1 were evaluated using a quantitative descriptive evaluation technique. Ten panelists participated in the study. These panelists previously underwent extensive training in the use of standardized vocabulary to describe the appearance, aroma, flavor, and texture of a variety of products. Data collection was conducted over a period of seven days, with panelists evaluating two samples on each day of testing. Two evaluations were obtained from each panelist for each compound yielding a total of 20 evaluations per compound. During the data collection, the panelists were give a list of attributes and instructed to indicate the intensity of each attribute by indicating the intensity on a 15-point linescale. The intensity was evaluated for the following time periods: in-mouth, after expectoration, and 30 seconds, 1, 2, 5, 10, 15, 30, 45, and 60 minutes into the aftertaste period.
Compounds 102, 103, and 105 were prepared as 5 μM solutions and Compound 104 and Comparative Compound 1 were prepared in 3 μM solutions. 15 mL aliqouts of the test solutions were administered to Panelists in 1 oz. plastic cups coded with a random 3-digit code. The Panelists refrained from brushing their teeth, eating, and drinking one hour before each evaluation. Mean intensities were calculated based on the Panelists responses for each sensory characteristic. The sensory characteristics evaluated were bitter, icy cool in mouth, numbing, cooling breathe in, total burning, alcohol burning, pepperine/capsaicin, tingling, and total trigeminal impact. For each sensory characteristic, the scale of the intensity was designed to cover a range encompassing the universe of products having the indicated sensory characteristic.
After mean intensities for each attribute were calculated, statistical significance for each mean intensity was calculated using analysis of variance (ANOVA) followed by Duncan's multiple comparison test at an alpha level of 5%. […] In the results provided herein, the Duncan's levels are reported as Levels A, B, and C.
Panelists were asked to assess the intensity of both capsaicin-like burning and Alcohol-like Burning sensations for Compounds 102 and 103 and Comparative Compound 1. Capsaicin-like burning is the sensation of warming or burning in the mouth, reminiscent of black pepper or hot sauce while alcohol-like burning is the sensation of warming or burning in the mouth, reminiscent of an alcohol burn. The combination of the intensity of these sensations was used to assess the total burning for the tested compounds. The average total burning after expectoration to 60 minutes was lower for both 5 μM Compound 102 and 5 μM Compound 103 as compared to 3 μM Comparative Compound 1.
The total intensity of trigeminal nerve feeling factors on the soft tissues of the mouth, including numbing, cooling (without breathing in), irritation, warming, burning, and tingling were determined for Compounds 102 and 103 and Comparative Compound 1. The average total trigeminal impact after expectoration to 60 minutes was lower for both 5 μM Compound 102 and 5 μM Compound 103 as compared to 3 μM Comparative Compound 1.
Icy cool in mouth is the sensation of coolness of the mouth, perceived with the mouth closed, not related to the temperature of the sample. Panelists were asked to assess the sensation of icy cool in mouth for Compound 104 and Compound 105 from the time immediately after expectoration of the sample through 60 minutes after expectoration. The average Icy Cool after expectoration to 60 minutes was higher for both 5 μM Compound 105 and 3 μM Compound 104 as compared to 3 μM Comparative Compound 1.
Cooling Breath In is the sensation of coolness of the mouth, when inhaling through the mouth, not related to the temperature of the sample. […]

In the case of `Cc1ccc(OCC(=O)N(Cc2cccs2)c2cc[nH]n2)cc1C` [Compound 105, 2-(3,4-dimethylphenoxy)-N-(1H-pyrazol-3-yl)-N-(thiophen-2-ylmethyl)acetamide], the “Cooling Breath In, Duncan's (5%)” value (5 μM solution) was “C”.

With `COc1ccc(OCC(=O)N(Cc2cccs2)c2cc[nH]n2)cc1` [Compound 103, 2-(4-methoxyphenoxy)-N-(1H-pyrazol-3-yl)-N-(thiophen-2-ylmethyl)acetamide] the “Numbing, Duncan's (5%)” value (5 μM solution) was “A”, the “Total Burning, Duncan's (5%)” value (5 μM solution) was “A” and the “Total Trigeminal Impact, Duncan's (5%)” value (5 μM solution) was “A”.

In the case of `CCc1ccc(OCC(=O)N(Cc2cccs2)c2cc[nH]n2)cc1` [Compound 104, 2-(4-ethylphenoxy)-N-(1H-pyrazol-3-yl)-N-(thiophen-2-ylmethyl)acetamide], the “Cooling Breath In, Duncan's (5%)” value (3 μM solution) was “C”.

With `Cc1ccc(OCC(=O)N(Cc2cccs2)c2ccn[nH]2)cc1` [Comparative Compound 1, reference compound] the “Cooling Breath In, Duncan's (5%)” value (3 μM solution) was “B”, the “Numbing, Duncan's (5%)” value (3 μM solution) was “B” and the “Total Burning, Duncan's (5%)” value (3 μM solution) was “B”. The “Total Trigeminal Impact, Duncan's (5%)” value (3 μM solution) was “B”.

For `O=C(COc1ccc(F)cc1)N(Cc1cccs1)c1cc[nH]n1` [Compound 102, 2-(4-flourophenoxy)-N-(1H-pyrazol-5-yl)-N-(thiophen-2-ylmethyl)acetamide], the “Tingling, Duncan's (5%)” value (5 μM solution) was “A”, the “Total Burning, Duncan's (5%)” value (5 μM solution) was “A” and the “Total Trigeminal Impact, Duncan's (5%)” value (5 μM solution) was “A”.
